At least one structure is not confirmed: it was looked up by name or label, or the drawing left a doubt.
Columns and labels:
Format in all cases: in vivo, zebrafish
cdkn2b morphants = test: Seahorse basal respiration, cdkn2b morphants (glioblastoma model); settings: cdkn2b-MO
Experimental: Next, all positive hits were assayed for improve bioenergetics using Seahorse bioanalyzer (Seahorse, Inc). Briefly, morphant zebrafish were seeded into 24-well Islet Flux plates (Seahorse) and incubated with compound or vehicle for 10 minutes prior to analysis. Complete mitochondrial profile was assessed for each individual larvae. Drugs that improved bioenergetics by 40% were considered candidate drugs.
Morpholinos directed to scn1a (epilepsy), park2 (neurodegenerative disease), idh1 (brain tumors (astrocytoma/oligodendrogliomas), cdkn2b (oligodendroglioma), h3f3a (oligodendroglioma), snf5 (smarcbla in zebrafish; Atypical Teratoid/Rhabdoid)), and shank3 (Autism Spectrum Disorder) were created and zebrafish larvae exposed as detailed in Example 3.

h3f3a morphants = test: Seahorse basal respiration, h3f3a morphants (glioblastoma model); settings: h3f3a-MO
idh1 morphants = test: Seahorse basal respiration, idh1 morphants (glioma model); settings: idh1-MO

Cn1nnc2c(C(N)=O)ncn2c1=O [temozolomide]
effect on increased basal respiration in cdkn2b morphants (cdkn2b morphants): reverses this increased bioenergetics to WT levels
effect on increased basal respiration in h3f3a morphants (h3f3a morphants): reverses this increased bioenergetics to WT levels
effect on increased basal respiration in idh1 morphants (idh1 morphants): reverses this increased bioenergetics to WT levels

— patent US11013219B2, “Metabolism-based drug screening platform in bioengineered zebrafish” (Path Therapeutics, Inc., priority 2014, dated 2021)
